Some of the results follow.
Tests used:
Assay in all cases: log2 fold change, soluble protein after heating vs DMSO (PISA); higher = thermal stabilisation; K562 cells, 10 uM, 30 min; active = over 0.2 and 3.5 SD of the protein, either way, in both replicates (recomputed)
[1] = compound: COC1=CC=C(C=C1)CN2C=CC3=C2C=C(C=C3)C(=O)NO
In short: (§1)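 Soluble protein was defined as the supernatant after 21,000xg for 90 min. It came from K562 cells at 2×10^6 cells/mL given 10 μM compound for 30 min, heated in aliquots for 3 min across 48°C-58°C, pooled, and extracted in PBS with 0.5% NP-40 at 4°C, and was quantified by TMTpro 16plex LC-MS/MS with equalised channel sums. Thermal stability against control samples, from duplicates, is reported as log2 fold change.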

Sequences of proteins named here, by UniProt entry; tags and fusion partners are left off. A change or cut given only in a name is not applied to a line headed by its entry.
UniProt Q6P1X5, whole entry, looked up: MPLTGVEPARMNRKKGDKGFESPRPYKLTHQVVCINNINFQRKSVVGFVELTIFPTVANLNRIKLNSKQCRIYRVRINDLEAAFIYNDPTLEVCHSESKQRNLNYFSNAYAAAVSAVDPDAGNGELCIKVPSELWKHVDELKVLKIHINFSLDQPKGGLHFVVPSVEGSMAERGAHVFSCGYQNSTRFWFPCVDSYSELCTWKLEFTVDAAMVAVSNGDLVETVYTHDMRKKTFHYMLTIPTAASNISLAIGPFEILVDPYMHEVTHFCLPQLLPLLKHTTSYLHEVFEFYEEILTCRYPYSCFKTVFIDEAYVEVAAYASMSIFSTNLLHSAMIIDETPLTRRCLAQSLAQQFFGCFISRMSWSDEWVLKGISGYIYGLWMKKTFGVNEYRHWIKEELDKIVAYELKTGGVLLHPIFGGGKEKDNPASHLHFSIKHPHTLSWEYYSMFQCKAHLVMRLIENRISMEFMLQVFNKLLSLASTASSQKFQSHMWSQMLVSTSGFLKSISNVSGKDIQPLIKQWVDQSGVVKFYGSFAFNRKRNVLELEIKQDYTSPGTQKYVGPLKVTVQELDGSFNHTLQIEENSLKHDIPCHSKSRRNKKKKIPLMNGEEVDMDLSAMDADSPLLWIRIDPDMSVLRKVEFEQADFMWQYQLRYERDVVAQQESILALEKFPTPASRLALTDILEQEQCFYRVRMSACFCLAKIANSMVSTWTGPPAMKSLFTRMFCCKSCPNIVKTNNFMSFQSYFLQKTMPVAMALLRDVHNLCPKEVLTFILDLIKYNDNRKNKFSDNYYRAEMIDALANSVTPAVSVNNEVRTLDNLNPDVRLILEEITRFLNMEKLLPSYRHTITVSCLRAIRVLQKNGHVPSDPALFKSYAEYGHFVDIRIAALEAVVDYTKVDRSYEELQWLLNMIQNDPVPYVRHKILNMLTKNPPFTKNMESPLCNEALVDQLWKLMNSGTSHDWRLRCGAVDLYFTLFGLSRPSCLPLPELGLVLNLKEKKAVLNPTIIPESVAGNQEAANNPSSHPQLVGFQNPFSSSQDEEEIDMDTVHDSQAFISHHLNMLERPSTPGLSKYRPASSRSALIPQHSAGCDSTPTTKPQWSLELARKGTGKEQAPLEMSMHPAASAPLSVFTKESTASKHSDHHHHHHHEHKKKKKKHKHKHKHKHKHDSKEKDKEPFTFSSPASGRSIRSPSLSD
UniProt Q13033: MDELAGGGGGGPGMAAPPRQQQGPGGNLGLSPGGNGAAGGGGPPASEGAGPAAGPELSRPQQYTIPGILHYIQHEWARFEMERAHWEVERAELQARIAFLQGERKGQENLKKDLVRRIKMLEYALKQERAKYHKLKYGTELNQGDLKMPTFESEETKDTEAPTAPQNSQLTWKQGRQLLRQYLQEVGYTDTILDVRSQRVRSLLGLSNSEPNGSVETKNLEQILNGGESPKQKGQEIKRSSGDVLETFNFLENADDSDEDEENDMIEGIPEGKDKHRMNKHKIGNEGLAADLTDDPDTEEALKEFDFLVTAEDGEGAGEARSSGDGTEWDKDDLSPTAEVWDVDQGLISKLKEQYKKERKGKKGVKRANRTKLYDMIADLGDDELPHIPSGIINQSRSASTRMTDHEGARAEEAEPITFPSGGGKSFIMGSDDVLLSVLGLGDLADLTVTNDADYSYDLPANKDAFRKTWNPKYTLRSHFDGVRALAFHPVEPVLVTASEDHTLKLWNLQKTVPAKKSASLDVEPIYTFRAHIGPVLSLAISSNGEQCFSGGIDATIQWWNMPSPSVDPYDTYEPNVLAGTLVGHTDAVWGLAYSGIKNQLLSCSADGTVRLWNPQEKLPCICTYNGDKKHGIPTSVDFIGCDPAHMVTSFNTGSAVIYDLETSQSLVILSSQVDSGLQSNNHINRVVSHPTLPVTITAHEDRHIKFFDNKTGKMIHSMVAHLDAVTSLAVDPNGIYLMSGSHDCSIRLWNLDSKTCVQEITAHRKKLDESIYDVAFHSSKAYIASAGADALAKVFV
UniProt Q8IYB8: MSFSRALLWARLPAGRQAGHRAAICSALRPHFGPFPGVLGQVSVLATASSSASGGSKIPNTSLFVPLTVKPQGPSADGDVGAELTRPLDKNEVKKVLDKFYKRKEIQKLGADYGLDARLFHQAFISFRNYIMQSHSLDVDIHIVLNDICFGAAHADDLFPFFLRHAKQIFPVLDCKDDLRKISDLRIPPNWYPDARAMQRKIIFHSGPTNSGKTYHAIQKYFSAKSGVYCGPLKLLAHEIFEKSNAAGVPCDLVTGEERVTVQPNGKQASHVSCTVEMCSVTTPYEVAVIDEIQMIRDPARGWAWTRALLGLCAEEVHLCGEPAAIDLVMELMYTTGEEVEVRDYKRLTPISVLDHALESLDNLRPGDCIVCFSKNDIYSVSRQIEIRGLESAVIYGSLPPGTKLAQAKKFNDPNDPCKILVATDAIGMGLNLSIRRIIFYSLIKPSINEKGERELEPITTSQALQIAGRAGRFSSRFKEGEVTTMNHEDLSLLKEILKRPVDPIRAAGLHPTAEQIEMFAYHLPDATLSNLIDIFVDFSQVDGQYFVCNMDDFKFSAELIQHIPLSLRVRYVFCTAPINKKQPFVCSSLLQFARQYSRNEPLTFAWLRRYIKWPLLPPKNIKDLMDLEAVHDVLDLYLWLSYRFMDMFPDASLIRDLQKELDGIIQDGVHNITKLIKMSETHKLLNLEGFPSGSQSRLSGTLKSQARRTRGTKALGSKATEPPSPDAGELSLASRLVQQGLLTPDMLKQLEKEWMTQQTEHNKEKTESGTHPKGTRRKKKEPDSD
UniProt P16949: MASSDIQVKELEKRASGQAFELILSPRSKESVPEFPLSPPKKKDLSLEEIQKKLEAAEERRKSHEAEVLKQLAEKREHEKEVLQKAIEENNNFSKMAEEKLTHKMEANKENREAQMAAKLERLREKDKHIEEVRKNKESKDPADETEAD
UniProt Q9NRL3: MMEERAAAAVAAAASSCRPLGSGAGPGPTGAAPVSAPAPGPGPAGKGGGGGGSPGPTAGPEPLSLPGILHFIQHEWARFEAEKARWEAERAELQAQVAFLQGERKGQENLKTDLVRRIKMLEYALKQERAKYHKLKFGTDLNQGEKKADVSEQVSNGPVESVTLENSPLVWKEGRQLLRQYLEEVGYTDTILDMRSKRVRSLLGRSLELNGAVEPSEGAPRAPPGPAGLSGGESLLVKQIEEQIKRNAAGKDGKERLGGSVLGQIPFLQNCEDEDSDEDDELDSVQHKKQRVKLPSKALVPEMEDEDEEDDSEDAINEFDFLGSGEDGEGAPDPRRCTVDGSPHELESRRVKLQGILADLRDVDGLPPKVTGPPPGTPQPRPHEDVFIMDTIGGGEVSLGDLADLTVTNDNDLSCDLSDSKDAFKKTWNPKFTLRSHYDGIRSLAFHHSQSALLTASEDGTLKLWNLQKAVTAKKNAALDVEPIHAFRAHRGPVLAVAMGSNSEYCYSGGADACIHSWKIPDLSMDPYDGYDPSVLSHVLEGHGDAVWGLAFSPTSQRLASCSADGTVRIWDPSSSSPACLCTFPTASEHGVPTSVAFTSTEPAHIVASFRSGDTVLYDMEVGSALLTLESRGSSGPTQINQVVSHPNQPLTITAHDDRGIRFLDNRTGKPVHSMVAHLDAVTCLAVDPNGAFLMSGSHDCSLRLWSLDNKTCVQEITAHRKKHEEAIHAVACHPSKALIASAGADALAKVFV
UniProt Q16563: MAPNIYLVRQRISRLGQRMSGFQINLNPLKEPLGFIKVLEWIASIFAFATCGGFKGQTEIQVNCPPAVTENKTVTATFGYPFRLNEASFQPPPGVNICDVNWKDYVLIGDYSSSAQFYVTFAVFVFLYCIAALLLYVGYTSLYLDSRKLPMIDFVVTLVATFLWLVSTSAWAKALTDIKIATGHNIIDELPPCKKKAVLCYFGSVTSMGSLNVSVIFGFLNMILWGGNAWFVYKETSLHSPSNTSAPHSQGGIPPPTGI
UniProt Q9UH99: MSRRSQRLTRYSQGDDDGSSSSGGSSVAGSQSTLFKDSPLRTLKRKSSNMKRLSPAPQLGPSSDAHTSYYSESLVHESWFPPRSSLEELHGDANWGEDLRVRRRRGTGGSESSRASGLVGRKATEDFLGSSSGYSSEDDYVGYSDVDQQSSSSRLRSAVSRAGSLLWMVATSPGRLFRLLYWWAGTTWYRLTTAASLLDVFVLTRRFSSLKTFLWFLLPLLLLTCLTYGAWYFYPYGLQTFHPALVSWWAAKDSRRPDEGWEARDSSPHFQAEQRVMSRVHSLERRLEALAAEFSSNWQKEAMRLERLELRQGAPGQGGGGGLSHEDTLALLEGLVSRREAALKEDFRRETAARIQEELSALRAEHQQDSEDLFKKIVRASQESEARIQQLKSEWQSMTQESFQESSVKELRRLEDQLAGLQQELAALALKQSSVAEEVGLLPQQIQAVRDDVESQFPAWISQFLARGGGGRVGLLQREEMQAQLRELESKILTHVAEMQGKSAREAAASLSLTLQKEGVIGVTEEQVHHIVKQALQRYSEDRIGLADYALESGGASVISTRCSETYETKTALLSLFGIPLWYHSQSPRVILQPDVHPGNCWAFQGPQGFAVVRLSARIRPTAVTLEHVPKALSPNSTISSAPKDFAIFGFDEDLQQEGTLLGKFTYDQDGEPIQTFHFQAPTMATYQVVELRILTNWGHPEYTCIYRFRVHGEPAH
UniProt Q6P1N9: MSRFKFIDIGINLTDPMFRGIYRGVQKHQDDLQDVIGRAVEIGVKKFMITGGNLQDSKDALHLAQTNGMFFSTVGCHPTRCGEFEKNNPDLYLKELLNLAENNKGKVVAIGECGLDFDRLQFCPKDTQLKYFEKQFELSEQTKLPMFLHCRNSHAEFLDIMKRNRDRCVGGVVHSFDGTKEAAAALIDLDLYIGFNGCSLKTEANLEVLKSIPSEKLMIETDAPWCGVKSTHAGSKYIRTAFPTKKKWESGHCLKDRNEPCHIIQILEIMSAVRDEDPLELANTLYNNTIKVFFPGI
UniProt Q86TM6, whole entry, looked up: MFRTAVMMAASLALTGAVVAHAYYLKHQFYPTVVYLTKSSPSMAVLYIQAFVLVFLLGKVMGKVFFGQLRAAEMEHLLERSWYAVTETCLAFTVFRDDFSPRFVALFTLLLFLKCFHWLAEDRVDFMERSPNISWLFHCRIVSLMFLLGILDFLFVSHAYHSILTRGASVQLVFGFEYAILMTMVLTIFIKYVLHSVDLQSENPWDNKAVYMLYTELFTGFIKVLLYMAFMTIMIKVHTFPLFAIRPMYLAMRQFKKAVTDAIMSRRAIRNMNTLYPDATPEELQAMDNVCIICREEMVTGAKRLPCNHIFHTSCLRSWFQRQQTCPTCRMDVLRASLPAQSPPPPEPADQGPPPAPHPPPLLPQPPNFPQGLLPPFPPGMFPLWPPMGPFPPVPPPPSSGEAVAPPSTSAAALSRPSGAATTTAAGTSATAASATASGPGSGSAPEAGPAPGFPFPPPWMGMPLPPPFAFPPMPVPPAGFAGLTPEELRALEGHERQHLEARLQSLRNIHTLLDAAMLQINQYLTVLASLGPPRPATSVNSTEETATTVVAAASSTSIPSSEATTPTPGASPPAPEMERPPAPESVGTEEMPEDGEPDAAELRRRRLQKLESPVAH
UniProt Q9H7L9: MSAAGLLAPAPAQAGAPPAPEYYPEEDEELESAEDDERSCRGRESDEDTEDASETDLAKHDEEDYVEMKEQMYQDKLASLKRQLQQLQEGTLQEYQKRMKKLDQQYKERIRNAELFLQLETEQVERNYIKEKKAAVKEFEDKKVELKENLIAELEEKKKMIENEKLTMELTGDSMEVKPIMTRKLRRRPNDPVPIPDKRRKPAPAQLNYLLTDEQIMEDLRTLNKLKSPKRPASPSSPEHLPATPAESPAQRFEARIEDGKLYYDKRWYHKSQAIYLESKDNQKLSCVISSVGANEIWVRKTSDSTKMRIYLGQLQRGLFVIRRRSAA
UniProt P63165, whole entry, looked up: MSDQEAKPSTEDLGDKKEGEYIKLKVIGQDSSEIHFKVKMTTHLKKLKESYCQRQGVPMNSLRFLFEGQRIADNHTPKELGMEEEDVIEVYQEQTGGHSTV
UniProt O15260: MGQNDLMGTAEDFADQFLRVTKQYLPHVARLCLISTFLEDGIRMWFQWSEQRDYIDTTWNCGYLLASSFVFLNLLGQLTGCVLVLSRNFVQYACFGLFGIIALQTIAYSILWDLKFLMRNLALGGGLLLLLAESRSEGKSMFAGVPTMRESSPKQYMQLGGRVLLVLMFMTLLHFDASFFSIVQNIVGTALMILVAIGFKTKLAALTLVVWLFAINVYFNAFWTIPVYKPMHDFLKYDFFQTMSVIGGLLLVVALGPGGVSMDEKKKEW
UniProt P61956, whole entry, looked up: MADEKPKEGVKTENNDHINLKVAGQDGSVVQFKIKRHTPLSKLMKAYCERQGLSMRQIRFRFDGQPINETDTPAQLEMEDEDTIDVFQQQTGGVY
UniProt Q9UI15: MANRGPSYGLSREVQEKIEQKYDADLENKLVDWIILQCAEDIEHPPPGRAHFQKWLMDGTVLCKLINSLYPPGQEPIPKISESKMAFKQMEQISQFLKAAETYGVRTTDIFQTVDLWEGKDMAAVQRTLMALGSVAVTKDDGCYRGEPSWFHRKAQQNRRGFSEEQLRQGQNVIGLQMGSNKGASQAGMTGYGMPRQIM

filanesib = compound: CON(C)C(=O)N1N=C(c2cc(F)ccc2F)S[C@@]1(CCCN)c1ccccc1 [filanesib]
In short: as §1

zotarolimus = compound: CO[C@H]1C[C@@H]2CC[C@@H](C)[C@@](O)(O2)C(=O)C(=O)N2CCCC[C@H]2C(=O)O[C@H]([C@H](C)C[C@@H]2CC[C@H](n3cnnn3)[C@H](OC)C2)CC(=O)[C@H](C)/C=C(\C)[C@@H](O)[C@@H](OC)C(=O)[C@H](C)C[C@H](C)/C=C/C=C/C=C/1C [zotarolimus]
In short: as §1

idasanutlin = compound: COc1cc(C(=O)O)ccc1NC(=O)[C@@H]1N[C@@H](CC(C)(C)C)[C@](C#N)(c2ccc(Cl)cc2F)[C@H]1c1cccc(Cl)c1F [idasanutlin]
In short: as §1

alisertib = compound: COc1cc(Nc2ncc3c(n2)-c2ccc(Cl)cc2C(c2c(F)cccc2OC)=NC3)ccc1C(=O)O [alisertib]
In short: as §1

[2] = compound: COc1cc2nc(-c3cc(F)ccc3O)nc(N[C@@H]3CNC[C@H]3C(C)(C)O)c2cc1OC
In short: as §1

gefitinib = compound: COc1cc2ncnc(Nc3ccc(F)c(Cl)c3)c2cc1OCCCN1CCOCC1 [gefitinib]
In short: as §1

[3] = compound: COc1cccc2cc(-c3nc([C@H]4CC[C@H](C(=O)O)CC4)n4ncnc(N)c34)[nH]c12
In short: as §1

lapatinib = compound: CS(=O)(=O)CCNCc1ccc(-c2ccc3ncnc(Nc4ccc(OCc5cccc(F)c5)c(Cl)c4)c3c2)o1 [lapatinib]
In short: as §1

pictilisib = compound: CS(=O)(=O)N1CCN(Cc2cc3nc(-c4cccc5[nH]ncc45)nc(N4CCOCC4)c3s2)CC1 [pictilisib]
In short: as §1

Measured: log2 fold change

SUOX (UniProt P51687)
inactive: [1] -0.321 | filanesib -0.014 | zotarolimus 0.02 | idasanutlin 0.013 | alisertib -0.014 | [2] 0.088 | gefitinib 0.007 | [3] 0.022 | lapatinib -0.088 | pictilisib 0.158

TAF2 (UniProt Q6P1X5)
inactive: [1] -0.136 | filanesib 0.225 | zotarolimus 0.297 | idasanutlin 0.321 | alisertib -0.059 | [2] 0.287 | gefitinib 0.027 | [3] -0.159 | lapatinib -0.121 | pictilisib 0.239

STRN3 (UniProt Q13033)
inactive: [1] 0.038 | filanesib 0.031 | zotarolimus -0.005 | idasanutlin 0.042 | alisertib -0.04 | [2] -0.006 | gefitinib -0.041 | [3] -0.011 | lapatinib 0.034 | pictilisib -0.025

SWAP70 (UniProt Q9UH65)
inactive: [1] 0.036 | filanesib -0.053 | zotarolimus -0.018 | idasanutlin -0.07 | alisertib -0.015 | [2] 0.014 | gefitinib 0.028 | [3] 0.02 | lapatinib 0.019 | pictilisib -0.026

SUB1 (UniProt P53999)
inactive: [1] -0.064 | filanesib 0.004 | zotarolimus -0.003 | idasanutlin 0.015 | alisertib 0.023 | [2] 0.022 | gefitinib 0.029 | [3] 0.011 | lapatinib -0.036 | pictilisib 0.032

SUPV3L1 (UniProt Q8IYB8)
inactive: [1] 0.074 | filanesib -0.023 | zotarolimus -0.002 | idasanutlin -0.007 | alisertib 0.041 | [2] 0 | gefitinib 0.007 | [3] 0.014 | lapatinib -0.026 | pictilisib 0.002

SUPT5H (UniProt O00267)
inactive: [1] 0.02 | filanesib -0.005 | zotarolimus 0.042 | idasanutlin -0.062 | alisertib -0.003 | [2] 0.058 | gefitinib 0.028 | [3] 0.027 | lapatinib -0.006 | pictilisib 0.05

STMN1 (UniProt P16949)
inactive: [1] -0.003 | filanesib -0.038 | zotarolimus 0.001 | idasanutlin 0.037 | alisertib -0.057 | [2] -0.006 | gefitinib 0.008 | [3] 0.033 | lapatinib -0.071 | pictilisib -0.032

STRN4 isoform 3 (UniProt Q9NRL3)
inactive: [1] -0.074 | filanesib -0.064 | zotarolimus -0.032 | idasanutlin 0.021 | alisertib -0.082 | [2] 0.064 | gefitinib 0.035 | [3] -0.068 | lapatinib 0.102 | pictilisib 0.113

SUCLG2 (UniProt Q96I99)
inactive: [1] 0.05 | filanesib -0.101 | zotarolimus 0.019 | idasanutlin -0.088 | alisertib 0.007 | [2] 0.043 | gefitinib 0.011 | [3] 0.046 | lapatinib -0.036 | pictilisib -0.011

STUB1 (UniProt Q9UNE7)
inactive: [1] 0.038 | filanesib 0.216 | zotarolimus 0.071 | idasanutlin 0.086 | alisertib -0.074 | [2] 0.022 | gefitinib -0.125 | [3] -0.089 | lapatinib 0.019 | pictilisib 0.036

SYPL1 (UniProt Q16563)
inactive: [1] -0.065 | filanesib -0.083 | zotarolimus -0.034 | idasanutlin 0.003 | alisertib -0.064 | [2] -0.008 | gefitinib 0.02 | [3] 0.096 | lapatinib -0.041 | pictilisib -0.024

Reprinted at random: two records from the list
STMN1 (UniProt P16949)
inactive: [1] -0.003 | filanesib -0.038 | zotarolimus 0.001 | idasanutlin 0.037 | alisertib -0.057 | [2] -0.006 | gefitinib 0.008 | [3] 0.033 | lapatinib -0.071 | pictilisib -0.032

SYPL1 (UniProt Q16563)
inactive: [1] -0.065 | filanesib -0.083 | zotarolimus -0.034 | idasanutlin 0.003 | alisertib -0.064 | [2] -0.008 | gefitinib 0.02 | [3] 0.096 | lapatinib -0.041 | pictilisib -0.024

Later entries:

SUMF2 (UniProt Q8NBJ7)
inactive: [1] -0.035 | filanesib -0.06 | zotarolimus 0.01 | idasanutlin 0 | alisertib -0.031 | [2] -0.011 | gefitinib 0.024 | [3] -0.006 | lapatinib 0.012 | pictilisib -0.112

SUN2 (UniProt Q9UH99)
inactive: [1] 0.028 | filanesib 0.013 | zotarolimus 0.017 | idasanutlin 0.077 | alisertib -0.044 | [2] -0.194 | gefitinib -0.078 | [3] -0.007 | lapatinib 0.066 | pictilisib 0.071

STK3 isoform 2 (UniProt Q13188)
inactive: [1] 0.1 | filanesib -0.046 | zotarolimus 0.007 | idasanutlin 0.031 | [2] 0.064 | gefitinib -0.056 | [3] 0.031 | lapatinib 0.023 | pictilisib -0.056

TATDN1 (UniProt Q6P1N9)
inactive: [1] -0.006 | filanesib -0.001 | zotarolimus -0.067 | idasanutlin 0.017 | alisertib -0.046 | [2] 0.001 | gefitinib 0.026 | [3] 0.04 | lapatinib -0.002 | pictilisib -0.04

TAB1 (UniProt Q15750)
inactive: [1] 0.106 | filanesib -0.037 | zotarolimus 0.019 | idasanutlin -0.031 | alisertib -0.094 | [2] 0.181 | gefitinib -0.07 | [3] -0.081 | lapatinib -0.128 | pictilisib 0.019

SYVN1 (UniProt Q86TM6)
inactive: [1] -0.049 | filanesib -0.064 | zotarolimus -0.021 | idasanutlin -0.061 | alisertib -0.028 | [2] -0.081 | gefitinib -0.005 | [3] 0.033 | lapatinib 0.006 | pictilisib 0.09

SUDS3 (UniProt Q9H7L9)
inactive: [1] 0.044 | filanesib 0.05 | zotarolimus 0.066 | idasanutlin -0.075 | alisertib 0.034 | gefitinib 0.066 | [3] 0.047

SUMO1 (UniProt P63165)
active: [2] -0.507 | lapatinib 0.549
inactive: [1] -0.363 | filanesib 0.102 | zotarolimus -0.183 | idasanutlin -0.099 | alisertib -0.052 | gefitinib 0.004 | [3] 0.055 | pictilisib 0.006

STK4 (UniProt Q13043)
inactive: [1] -0.031 | filanesib -0.034 | zotarolimus -0.025 | idasanutlin 0.01 | alisertib -0.047 | [2] 0.099 | gefitinib -0.007 | [3] 0.015 | lapatinib -0.036 | pictilisib 0.02

SURF4 (UniProt O15260)
inactive: [1] -0.056 | filanesib -0.036 | zotarolimus -0.005 | idasanutlin -0.016 | alisertib -0.139 | [2] -0.074 | gefitinib 0.018 | [3] 0.066 | lapatinib -0.069 | pictilisib -0.004

SUGT1 (UniProt Q9Y2Z0)
inactive: [1] 0.018 | filanesib -0.062 | zotarolimus 0.026 | idasanutlin 0.004 | alisertib -0.069 | [2] 0 | gefitinib -0.001 | [3] -0.009 | lapatinib -0.002 | pictilisib 0.023

SUMO2 (UniProt P61956)
inactive: [1] -0.053 | filanesib 0.102 | zotarolimus -0.127 | idasanutlin 0.126 | alisertib -0.06 | [2] -0.071 | gefitinib -0.018 | [3] 0.091 | lapatinib -0.036 | pictilisib -0.127

TAF15 (UniProt Q92804)
inactive: [1] -0.02 | filanesib 0.165 | zotarolimus -0.051 | idasanutlin 0.109 | alisertib -0.064 | [2] -0.032 | gefitinib -0.063 | [3] 0.037 | lapatinib 0.004 | pictilisib -0.071

TARS1 (UniProt P26639)
inactive: [1] 0.011 | filanesib -0.142 | zotarolimus 0.034 | idasanutlin -0.071 | alisertib -0.069 | [2] -0.032 | gefitinib -0.003 | [3] 0 | lapatinib 0.012 | pictilisib -0.028

STK38L (UniProt Q9Y2H1)
inactive: [1] -0.007 | filanesib -0.009 | zotarolimus 0.036 | idasanutlin -0.095 | alisertib 0.037 | gefitinib 0.029 | [3] -0.064 | pictilisib 0.05

TAGLN3 (UniProt Q9UI15)
inactive: [1] -0.341 | filanesib 0.024 | zotarolimus -0.159 | idasanutlin 0.023 | alisertib 0.083 | [3] 0.155

Reference: the supplement of paper PMC10849652
